Assay [1] concerns the target human nucleolin fused to the red fluorescent protein mKate2 (NCL-mKate2), expressed in yeast (human) (UniProt P19338). Nature of the assay: co-IP; lysate of TDP 2C yeast co-expressing TDP-43-GFP and NCL-mKate2; 1 mg total protein with 1 ug anti-NCL, anti-GFP or anti-RFP antibody, 16 h, 4°C; protein A-Sepharose; IP buffer 25 mM Tris-HCl pH 7, 75 mM NaCl, 1 mM EDTA, 2.5% glycerol, 0.2% NP-40, 0.5 mM DTT; Western blot; control without antibody.

By UniProt entry, the sequences of proteins in these tests, tags left out.
UniProt P19338: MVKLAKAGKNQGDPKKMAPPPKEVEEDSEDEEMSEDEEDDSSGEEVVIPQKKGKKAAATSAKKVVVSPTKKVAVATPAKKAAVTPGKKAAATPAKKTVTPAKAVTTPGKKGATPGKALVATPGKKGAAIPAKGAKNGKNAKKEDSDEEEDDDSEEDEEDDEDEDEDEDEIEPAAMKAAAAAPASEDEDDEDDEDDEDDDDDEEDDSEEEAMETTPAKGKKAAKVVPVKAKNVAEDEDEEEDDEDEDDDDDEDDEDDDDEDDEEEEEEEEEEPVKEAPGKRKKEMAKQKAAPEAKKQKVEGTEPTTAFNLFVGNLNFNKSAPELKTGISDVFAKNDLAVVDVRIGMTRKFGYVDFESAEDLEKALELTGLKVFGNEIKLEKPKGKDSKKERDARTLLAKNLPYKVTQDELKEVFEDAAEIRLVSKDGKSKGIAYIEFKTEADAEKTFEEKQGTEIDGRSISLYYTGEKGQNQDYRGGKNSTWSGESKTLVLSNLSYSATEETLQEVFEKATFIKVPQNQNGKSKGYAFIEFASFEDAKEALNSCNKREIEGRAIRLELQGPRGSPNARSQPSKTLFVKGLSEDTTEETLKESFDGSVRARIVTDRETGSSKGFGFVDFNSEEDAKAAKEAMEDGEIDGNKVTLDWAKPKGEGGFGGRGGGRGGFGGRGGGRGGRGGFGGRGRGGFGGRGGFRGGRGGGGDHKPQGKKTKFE

The target of assay [2] is human nucleolin fused to GFP (NCL-GFP), expressed in HEK293T cells (human) (UniProt P19338). Kind of assay: co-IP; lysate of HEK293T cells co-transfected with TDP-43-mKate2 and NCL-GFP; 200 ug total protein with 0.2 ug anti-NCL antibody, 16 h, 4°C; protein A-Sepharose; lysis buffer with 137 mM NaCl, 0.2% NP-40, 10% glycerol, 5 mM EDTA; with or without RNase A treatment of the lysate (2 ug, 4°C, 10 min); Western blot with anti-GFP and anti-TDP-43; non-transfected cells as control.

No constants are given. Whether binding was seen depends on the method and setting. Binding seen in cells or lysates may run through a third protein. Some entries that bind do so weakly or less than the wild type.

Turning to “wild-type human TDP-43 fused to GFP (TDP-43-GFP chimera), expressed in yeast (from UniProt Q13148 1-414)”, in assay [1], the binding result is “binds”.
On to “human TDP-43 fused to mKate2 (TDP-43-mKate2), expressed in HEK293T cells (from UniProt Q13148 1-414)”, for which, in assay [2], the binding entry was “binds”.

Values taken from publication PMC8072491.
